Here are results for three compounds from patent US8933133B2, “Animal feeds containing polyols” (ADM Alliance Nutrition, Inc., priority 2006, dated 2015).

The data set deals with rumen fluid. Put plainly: In vitro fermentation of polyols in an artificial rumen environment using rumen fluid as inoculum. To be noted: for Acetate / Acetate, % VFA / NH3 / Propionate / Propionate, % VFA / Tot Butyrate, % VFA / pH: after 24 hours in vitro rumen fermentation; for pH: 0.3 grams per bottle, 30 mL total fluid, 20% rumen fluid; for Total VFA / Total Butyrate: after 24 hours; for Total VFA: Total VFA = acetate + propionate + butyrate; for Total Butyrate: total butyrate = n-butyrate + isobutyrate. The method, then: Fermentations were performed on two separate days where gas production was monitored every 30 minutes. In addition, pH, ammonia (NH3), and volatile fatty acid (“VFA”) production were measured after 24 hours. Duplicate samples of each compound were evaluated using in vitro rumen fermentations.
Duplicate samples of these compounds were fermented in vitro using rumen fluid as inoculum. Samples were weighed into 150 mL serum bottles (0.3 grams per bottle) using a CO2 atmosphere to provide an anaerobic environment. A standard buffered media was prepared (no additional feed matter was included in the fermentation), degassed, and added to the serum bottles (see, Goering, H. K., and P. J. Van Soest, “Forage Fiber Analyses (Apparatus, Reagents, Procedures, and Some Applications),” Agric. Handbook, No 379, ARS-USDA, Washington, D.C., 1970). Rumen fluid was obtained from a dairy cow, filtered, and added to the serum bottles as 20% of the total fluid addition (30 mL total fluid volume). The serum bottles were sealed, placed in an incubator, and the fermentation was allowed to proceed. Fermentations were performed on two separate days, during which time gas production was monitored every 30 minutes and pH, NH3, and VFA production measured after 24 hours.

Take `OCC(O)CO` [Glycerol, glycerol]: the Acetate worked out at 3.1 mM; the “Acetate, % VFA” value was determined as 6.5 % VFA; the NH3 worked out at 37.2 mg/dL; the Propionate was 36.9 mM. The “Propionate, % VFA” value amounted to 77.7 % VFA; the “Tot Butyrate, % VFA” value is reported as 18.5 % VFA; the pH is 6.12; the “Total VFA” value came to 47.5 mM. Also, the “Total Butyrate” value amounted to 8.8 mM.

As for `OC[C@@H](O)[C@H]1OC[C@H](O)[C@H]1O` [Sorbitan, 1,4-anhydro-D-sorbitol], the Acetate was determined as 4.0 mM; the “Acetate, % VFA” value is 50.0 % VFA; the NH3 is reported as 59.1 mg/dL; the Propionate was found to be 1.2 mM. For the same compound, the “Propionate, % VFA” value stood at 15.0 % VFA; the “Tot Butyrate, % VFA” value worked out at 46.3 % VFA; the pH is listed as 6.65; the “Total VFA” value was 8.0 mM. Moreover, the “Total Butyrate” value was found to be 3.7 mM.

As for `OC[C@@H](O)[C@@H](O)[C@H](O)[C@@H](O)CO` [Sorbitol, sorbitol], the Acetate is given as 18.2 mM; the “Acetate, % VFA” value was determined as 40.3 % VFA; the NH3 was 30.2 mg/dL; the Propionate is given as 10.5 mM. Besides, the “Propionate, % VFA” value worked out at 23.2 % VFA; the “Tot Butyrate, % VFA” value came out at 39.4 % VFA; the pH is 6.00; the “Total VFA” value is recorded as 45.2 mM. Also, the “Total Butyrate” value came to 17.8 mM.
